Data: patent US8969515B2, “Pharmaceutical composition for treating hyperproliferative diseases” (OOO “MetaMax”, priority 2011, dated 2015)
Not every detail of the peptide structures is certain; ends, links or a residue may be inferred.

Legend:
[1] = test system: cell lines A549, HEK293 and MCF-7; assay: Apoptosis level with pAntp chimeric peptide versions; assay type: cell-based, human
Experimental: FIG. 24. Effect of chimeric peptides containing a p16INK4a fragment on apoptosis level in non-synchronized and synchronized cell line A549. Peptide concentration is 40 µM. Y-axis—percentage of apoptotic bodies.
FIG. 25. Effect of chimeric peptides containing a p16INK4a fragment on apoptosis level in non-synchronized and synchronized HEK293 cell line. Peptide concentration is 40 µM. Y-axis—percentage of apoptotic bodies.
FIG. 26. Comparisons of cytotoxic effect of chimeric peptides pAntpp16 (1, 2) on HEK293 cell culture.
In the next phase of work, we assessed the dependence of the cytotoxic effect exerted by the chimeric test peptides with the peptide vector pAntp. An experiment to determine the level of apoptosis was carried out on the cell lines A549 (human, lung carcinoma), HEK293 (human, embryonic kidney) and MCF-7 (human, mammary adenocarcinoma). Cells were cultured by standard techniques in DMEM medium containing 10% of FSB. A part of the cells was previously synchronized using the method of double thymidine block and synchronization method with the depleted media (see “Experiment. Parts”). The chimeric test peptides pAntp-p16 (1 and 2) were added to the culture medium. As a negative control we used cells treated with the peptide pAntp_zam (FIGS. 24, 25).

Cervix cancer = assay: Induced apoptosis in short-term cultures of tumors: cervix cancer; assay type: cell-based, human; conditions: 24 hours, 40 μM, average
Ovarian cancer = assay: Induced apoptosis in short-term cultures of tumors: ovarian cancer; assay type: cell-based, human; conditions: 24 hours, 40 μM, average
[2] = test system: HEK293 cell line, non-synchronized and synchronized; assay: Effect of pAntp chimeric peptide versions on cell cycle, HEK293; assay type: cell-based, human; conditions: 40 μM
Experimental: FIG. 22. Effect of chimeric peptide pAntp containing a p16INK4a fragment, on the cell cycle. A—non-synchronized cell line HEK293, B—cell line HEK293 synchronized in S-phase. Peptide concentration is 40 µM. The peptides are pAntp and three further peptides 1-p16, 2-p16, and 3-p16, wherein peptides 1-p16 and 2-p16 are synthetic peptides differing by the location of the 20 amino acids fragment of p16 relative to pAntp; and peptide 3-p16 is a genetically engineered peptide comprising a 50 amino acids insert of protein Antp.
We used three versions of the chimeric peptide containing p16INK4a active center and pAntp vector. These chimeric peptides differ by location of the active center relative to N-C termini of the molecule and the presence of an insertion of 44 amino acids ([…], SEQ ID NO: 9) for peptide 3 produced by genetic engineering method (Table 1).
In the study of the properties of these peptides we also investigated synchronized and nonsynchronized cell cultures. In a synchronized culture, the peptide was added at the time of sync block removal and in the nonsynchronized at a monolayer density (for adhesion cultures) of ~50%.

[3] = test system: breast cancer cells showing signs of a simple ductal hyperplasia; assay: Cytotoxic effect on short-term culture of breast cells with simple ductal hyperplasia; assay type: cell-based, human
A549 cells xenograft = assay: Anti-tumor activity in vivo, local injection, A549 xenograft; conditions: 10 injections, control 95.24
Source text: 10 mice constituted the 1st treatment group. […] The experiment lasted 24 days.
In the experimental groups, we observed a reduced tumor growth and on day 6 after the begin of administration of the peptide there could be observed a significant reduction in tumor volume in experimental groups compared with the control ones (FIG. 32). The experiment lasted 24 days. During this time, we performed 10 injections of the chimeric peptide in the experimental groups. In the control group, on day 24 of the experiment, the average tumor volume in mice was 95.24 mm^3, one mouse died. In the first experimental group (administered dose of peptide—0.1 mg) average tumor volume was 39.29 mm^3, one mouse died.

Stomach cancer = assay: Induced apoptosis in short-term cultures of tumors: stomach cancer; assay type: cell-based, human; conditions: 24 hours, 40 μM, average
Bladder cancer = assay: Induced apoptosis in short-term cultures of tumors: bladder cancer; assay type: cell-based, human; conditions: 24 hours, 40 μM, average
Pancreas cancer = assay: Induced apoptosis in short-term cultures of tumors: pancreas cancer; assay type: cell-based, human; conditions: 24 hours, 40 μM, average
Kidney cancer = assay: Induced apoptosis in short-term cultures of tumors: kidney cancer; assay type: cell-based, human; conditions: 24 hours, 40 μM, average
Lung cancer = assay: Induced apoptosis in short-term cultures of tumors: lung cancer; assay type: cell-based, human; conditions: 24 hours, 40 μM, average
Prostate cancer = assay: Induced apoptosis in short-term cultures of tumors: prostate cancer; assay type: cell-based, human; conditions: 24 hours, 40 μM, average
[4] = test system: cells of the breast fibroadenoma; assay: Cytotoxic effect on short-term culture of breast fibroadenoma cells; assay type: cell-based, human; conditions: after 24 hours
Breast cancer = assay: Induced apoptosis in short-term cultures of tumors: breast cancer; assay type: cell-based, human; conditions: 24 hours, 40 μM, average

Question: What does the source list for `CC[C@H](C)[C@H](NC(=O)[C@H](CCCCN)NC(=O)[C@@H](NC(=O)[C@H](CCC(N)=O)NC(=O)[C@H](CCCNC(=N)N)NC(=O)[C@H](CO)NC(=O)[C@H](CCCNC(=N)N)NC(=O)[C@H](C)NC(=O)CNC(=O)[C@H](C)NC(=O)[C@H](CCCNC(=N)N)NC(=O)[C@H](Cc1c[nH]cn1)NC(=O)[C@H](CC(C)C)NC(=O)[C@@H](NC(=O)[C@@H](NC(=O)[C@H](CC(C)C)NC(=O)[C@@H](NC(=O)[C@H](CC(=O)O)NC(=O)[C@H](CC(C)C)NC(=O)[C@H](Cc1ccccc1)NC(=O)CNC(=O)[C@H](CCC(=O)O)NC(=O)[C@H](CCCNC(=N)N)NC(=O)[C@H](C)NC(=O)[C@H](C)NC(=O)[C@@H](N)CC(=O)O)[C@@H](C)O)C(C)C)C(C)C)[C@@H](C)CC)C(=O)N[C@@H](Cc1c[nH]c2ccccc12)C(=O)N[C@@H](Cc1ccccc1)C(=O)N[C@@H](CCC(N)=O)C(=O)N[C@@H](CC(N)=O)C(=O)N[C@@H](CCCNC(=N)N)C(=O)N[C@@H](CCCNC(=N)N)C(=O)N[C@@H](CCSC)C(=O)N[C@@H](CCCCN)C(=O)N[C@@H](Cc1c[nH]c2ccccc12)C(=O)N[C@@H](CCCCN)C(=O)N[C@@H](CCCCN)C(=O)O` [pAntp_p16(2)]?
Answer: effect on the level of apoptosis ([1]; 40 μM, lines A549 and HEK 293, non-synchronized and synchronized): markedly increases; level of apoptosis relative to chimeric peptide 1 ([1]; HEK293 cell culture): almost two times higher; Induced apoptosis level (Cervix cancer): 5.2; Induced apoptosis level (Ovarian cancer): 12.3; changes of the cell cycle phases ([2]; synchronized and nonsynchronized cells): marked reduction in S-phase; anti-proliferative effect on cells ([2]; summary of HEK293 and A549 experiments): has an antiproliferative effect; mean induced apoptosis [3]: 14.5%; average tumor volume (A549 cells xenograft; day 24, 0.1 mg into the tumor once every two days): 39.29 mm3; average tumor volume (A549 cells xenograft; day 24, 0.2 mg into the tumor once every two days): 57.51 mm3; Induced apoptosis level (Stomach cancer): 35.4; Induced apoptosis level (Bladder cancer): 24.7; Induced apoptosis level (Pancreas cancer): 18.9; Induced apoptosis level (Kidney cancer): 26.0; Induced apoptosis level (Lung cancer): 13.5; Induced apoptosis level (Prostate cancer): 15.4; induced apoptosis, maximum [4]: 80%; induced apoptosis, average level ([4]; spontaneous apoptosis average 12.8%): 38.2%; Induced apoptosis level (Breast cancer): 25.8
